Results are given in words; binding and its absence hold for the method and conditions named. Some results given as binding are weak or reduced against the parent protein; the word gives no strength.
Assays:
[1] = molecular target: platelet receptor GPIb-alpha (UniProt P07359); experiment: FACS on activated platelets; FIG. 48 (the legend and the next sentence name FVII-045 instead of FVII-049)
[2] = molecular target: GPIIbIIIa on activated human platelets (human) (UniProt P08514+P05106); experiment: FACS on activated human platelets, FITC-labeled FVII antibody; reference FVIIaFc (FVII-011); FIG. 44C

Protein sequences, listed by entry. Tags and fused reporters are not part of them. Lines headed by an entry give the natural chain unless they say otherwise; changes in a name come on top. Residues count along the entry.
UniProt P07359, residues 17-652: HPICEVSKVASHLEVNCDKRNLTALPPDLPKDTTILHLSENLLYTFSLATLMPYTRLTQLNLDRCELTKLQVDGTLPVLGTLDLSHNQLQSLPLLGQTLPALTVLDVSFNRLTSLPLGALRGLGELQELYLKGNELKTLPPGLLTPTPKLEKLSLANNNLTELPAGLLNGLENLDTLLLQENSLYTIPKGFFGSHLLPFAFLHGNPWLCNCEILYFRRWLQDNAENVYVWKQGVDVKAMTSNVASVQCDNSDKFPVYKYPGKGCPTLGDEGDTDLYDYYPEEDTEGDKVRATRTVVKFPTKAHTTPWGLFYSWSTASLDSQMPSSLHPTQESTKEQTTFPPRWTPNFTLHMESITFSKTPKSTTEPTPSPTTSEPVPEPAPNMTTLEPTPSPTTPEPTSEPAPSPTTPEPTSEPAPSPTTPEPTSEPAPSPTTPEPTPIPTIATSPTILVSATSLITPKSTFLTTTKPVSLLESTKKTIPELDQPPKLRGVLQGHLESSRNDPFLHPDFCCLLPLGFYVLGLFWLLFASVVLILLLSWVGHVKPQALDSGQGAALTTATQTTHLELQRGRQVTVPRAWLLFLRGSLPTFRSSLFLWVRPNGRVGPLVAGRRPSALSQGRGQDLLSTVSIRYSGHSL
UniProt P08514: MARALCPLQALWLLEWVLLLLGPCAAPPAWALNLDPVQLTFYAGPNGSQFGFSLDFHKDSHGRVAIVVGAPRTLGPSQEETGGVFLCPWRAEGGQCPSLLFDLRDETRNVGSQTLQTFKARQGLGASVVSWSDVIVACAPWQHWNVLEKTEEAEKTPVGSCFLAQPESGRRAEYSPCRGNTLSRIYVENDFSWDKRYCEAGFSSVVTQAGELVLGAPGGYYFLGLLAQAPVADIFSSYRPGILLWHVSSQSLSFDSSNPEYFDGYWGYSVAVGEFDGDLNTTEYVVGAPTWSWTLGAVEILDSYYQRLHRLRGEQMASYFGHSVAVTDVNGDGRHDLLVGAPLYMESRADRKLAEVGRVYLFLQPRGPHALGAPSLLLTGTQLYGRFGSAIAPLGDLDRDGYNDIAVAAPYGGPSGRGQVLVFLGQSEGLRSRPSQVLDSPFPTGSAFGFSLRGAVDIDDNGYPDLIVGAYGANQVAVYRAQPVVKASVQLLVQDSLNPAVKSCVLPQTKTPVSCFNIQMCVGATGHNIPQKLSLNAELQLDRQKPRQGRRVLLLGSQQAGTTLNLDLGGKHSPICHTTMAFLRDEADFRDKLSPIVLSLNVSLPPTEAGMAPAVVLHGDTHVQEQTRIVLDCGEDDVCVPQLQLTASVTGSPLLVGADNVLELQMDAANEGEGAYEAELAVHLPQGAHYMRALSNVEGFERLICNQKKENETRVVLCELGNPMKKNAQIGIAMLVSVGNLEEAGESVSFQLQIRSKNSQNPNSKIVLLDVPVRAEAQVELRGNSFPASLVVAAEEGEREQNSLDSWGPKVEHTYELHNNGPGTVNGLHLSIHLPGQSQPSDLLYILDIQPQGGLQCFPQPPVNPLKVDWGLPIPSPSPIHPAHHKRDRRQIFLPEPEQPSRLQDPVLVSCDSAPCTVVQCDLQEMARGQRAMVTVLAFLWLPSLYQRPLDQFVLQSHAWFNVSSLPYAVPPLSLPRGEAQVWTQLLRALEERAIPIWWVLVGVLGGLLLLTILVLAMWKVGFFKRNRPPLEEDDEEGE
UniProt P05106: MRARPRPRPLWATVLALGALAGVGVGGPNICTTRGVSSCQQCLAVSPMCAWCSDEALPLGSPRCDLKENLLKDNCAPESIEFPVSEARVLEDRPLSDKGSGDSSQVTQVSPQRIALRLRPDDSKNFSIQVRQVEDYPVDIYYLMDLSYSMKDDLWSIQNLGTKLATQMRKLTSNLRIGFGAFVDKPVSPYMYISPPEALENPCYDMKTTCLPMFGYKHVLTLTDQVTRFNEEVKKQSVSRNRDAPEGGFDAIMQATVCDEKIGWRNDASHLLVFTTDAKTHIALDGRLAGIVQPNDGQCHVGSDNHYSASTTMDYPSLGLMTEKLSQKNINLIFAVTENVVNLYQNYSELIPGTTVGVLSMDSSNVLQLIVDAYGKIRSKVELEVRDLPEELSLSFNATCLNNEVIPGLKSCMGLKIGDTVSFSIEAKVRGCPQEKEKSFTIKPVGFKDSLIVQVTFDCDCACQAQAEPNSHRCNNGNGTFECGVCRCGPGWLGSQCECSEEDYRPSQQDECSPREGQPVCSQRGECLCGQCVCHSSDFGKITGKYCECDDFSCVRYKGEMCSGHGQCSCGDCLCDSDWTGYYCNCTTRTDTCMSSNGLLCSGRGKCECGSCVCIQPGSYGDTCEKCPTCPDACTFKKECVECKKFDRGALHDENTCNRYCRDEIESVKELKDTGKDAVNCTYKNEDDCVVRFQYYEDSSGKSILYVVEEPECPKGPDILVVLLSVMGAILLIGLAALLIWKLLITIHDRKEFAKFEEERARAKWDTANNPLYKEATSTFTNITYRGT
UniProt P08709: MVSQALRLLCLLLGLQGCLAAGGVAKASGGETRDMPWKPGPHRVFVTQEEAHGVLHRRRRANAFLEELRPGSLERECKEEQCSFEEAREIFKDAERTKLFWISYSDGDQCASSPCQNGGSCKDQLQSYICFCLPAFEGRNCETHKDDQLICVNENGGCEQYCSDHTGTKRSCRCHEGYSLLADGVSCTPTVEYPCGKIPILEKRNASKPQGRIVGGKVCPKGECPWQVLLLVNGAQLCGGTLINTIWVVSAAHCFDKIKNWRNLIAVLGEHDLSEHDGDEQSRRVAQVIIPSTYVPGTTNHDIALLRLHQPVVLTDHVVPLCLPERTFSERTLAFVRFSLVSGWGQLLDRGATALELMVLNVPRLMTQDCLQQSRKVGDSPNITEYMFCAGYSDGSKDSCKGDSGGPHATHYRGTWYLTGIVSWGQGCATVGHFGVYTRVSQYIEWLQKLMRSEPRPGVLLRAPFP

| binding [1] | binding [2] | Substance |
| --- | --- | --- |
| binds | – | FVII-049 (from UniProt P08709 61-212) (Fc fusion) |
| – | binds | FVII-066 (from UniProt P08709 61-212) (Fc fusion) |

From patent publication US20130216513A1
